Consider 16 molecules from PubChem BioAssay AID328 (DTP/NCI, 2004).

Molecules are shown by their SMILES. The list shows only some results of the screen, not a fair sample: it gathers tests that were run many times, whatever their T/C, doses with no T/C, and many T/C values between a quarter and a half above the control. Further doses and runs are listed elsewhere. T/C gives the treated animals as a percentage of the vehicle group. Some entries give survivors of the animals treated and no T/C: the source files T/C as zero there, which appears to mark a toxic dose or a test without result, not a measured value. Some survivor counts are full or nearly so, which does not show that the dose was tolerated: the source hardly ever lists a survival T/C far under the control, and the zero likely stands for such cases as well. Counts of survivors are from the toxicity check (mostly the fifth day) where no day follows; animals may have died later. Schedules are NCI's codes, taken here to give the interval after Q, in days (D) or hours (H), and the number of doses after X. Some structures stand for samples that the source files as different forms (salt, stereo form or complex); doses refer to the form tested. For survival time, this PubChem deposit counts one and a half times the control or more as active, and values a quarter to a half above the control carry no call in these data; other NCI protocols may use other cut-offs. Some T/C values carry the count of animals alive at the toxicity check (mostly the fifth day); where none is given, no animal had died by that day. Some entries hold several experiments; the results are listed from low to high. Counts like (3×) stand for listed records that agree.

The assay deals with BDF1 mice, P388 leukemia ip, median survival T/C. As to the kind of experiment: NCI In Vivo Anticancer Drug Screen. Data for tumor model P388 Leukemia (intraperitoneal) in B6D2F1 (BDF1) mice. Conditions: T/C endpoint: median survival time, higher T/C = longer survival. The gist of the method: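 In tumour-bearing mice, survival after compound treatment is set against the vehicle group and given as a quotient.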

Where [1] appears, read: dose: 32.0 mg/kg/injection, schedule: Q01DX010 (ip), vehicle: saline.
The mark [2] stands for this setting: dose: 50.0 mg/kg/injection, schedule: Q01DX009 (ip), vehicle: saline with Tween-80.
[3] abbreviates: dose: 100.0 mg/kg/injection, schedule: Q01DX009 (ip), vehicle: Klucel (hydroxypropylcellulose) (HPC).
Setting [4] is: dose: 100.0 mg/kg/injection, schedule: Q01DX009 (ip), vehicle: saline with Tween-80.
Setting [5] is: dose: 200.0 mg/kg/injection, schedule: Q01DX009 (ip), vehicle: saline with Tween-80.
Where [6] appears, read: dose: 5.0 mg/kg/injection, schedule: Q01DX009 (ip), vehicle: gum acacia.

As to `NC(Cc1ccc(OC2CCCC2)c(N(CCCl)CCCl)c1)C(=O)O` (centres undefined), the T/C (dose: 0.25 mg/kg/injection, schedule: Q04DX003 (ip), vehicle: Klucel (hydroxypropylcellulose) (HPC)) is 136 % of control. Also, the survivor count (dose: 10.0 mg/kg/injection, schedule: Q04DX003 (ip), vehicle: saline) is reported as 6 of 6; the survivor count (dose: 30.0 mg/kg/injection, schedule: Q04DX003 (ip), vehicle: other) is reported as 3 of 6; the survivor count (dose: 45.0 mg/kg/injection, schedule: Q04DX003 (ip), vehicle: other) is 4 of 6.

On to `O=C(Nc1ccc(C2=NCCN2)cc1)c1ccc(C(=O)Nc2ccc(C3=NCCN3)cc2)c(Cl)c1`, for which the T/C runs as follows: (dose: 2.0 mg/kg/injection, schedule: Q01DX010 (ip), vehicle: water) 123, 133, 141 (5×), 145 (2×), 150, 154 (3×), 162, 163 (4×), 168 (2×), 170 (2×), 172, 177, 180, 188 % of control; (dose: 4.0 mg/kg/injection, schedule: Q01DX010 (ip), vehicle: saline) 127, 138, 160, 170 % of control; (dose: 4.0 mg/kg/injection, schedule: Q01DX010 (ip), vehicle: water) 100, 146 (2×), 150, 154, 158, 163 (2×), 166, 168, 172 (3×), 173, 175 (3×), 177, 180, 181 (4×), 181 [5 of 6 alive], 190 (3×), 192, 195 (2×), 196, 200 (2×), 204, 205, 209, 245 % of control (2×); (dose: 8.0 mg/kg/injection, schedule: Q01DX010 (ip), vehicle: saline) 161, 175, 190, 195 % of control; (dose: 8.0 mg/kg/injection, schedule: Q01DX010 (ip), vehicle: water) 145 % of control; (dose: 12.0 mg/kg/injection, schedule: Q01DX010 (ip), vehicle: water) 145 % of control. The T/C by setting is: (dose: 16.0 mg/kg/injection, schedule: Q01DX010 (ip), vehicle: saline) 176, 190, 205, 220 % of control; (dose: 16.0 mg/kg/injection, schedule: Q01DX010 (ip), vehicle: water, evaluated on day 30, list 1 of 2) 191, 192, 207, 208 [5 of 6 alive], 212, 218, 220, 222 (2×), 225, 227, 229, 230, 231, 233 (2×), 236, 245 (2×), 250 (2×), 254, 259, 260, 270, 272 (3×), 275, 285, 333 % of control; (dose: 16.0 mg/kg/injection, schedule: Q01DX010 (ip), vehicle: water, evaluated on day 30, list 2 of 2) 184, 191, 200, 208 (2×), 214, 218, 222 (2×), 223, 225 [5 of 6 alive], 227, 229, 230 (2×), 231, 233, 236 (2×), 245, 250 (3×), 254, 259, 260, 272 (4×), 285, 300 % of control; (dose: 16.0 mg/kg/injection, schedule: Q01DX010 (ip), vehicle: water, run until all animals had died) 150 and 180 % of control (2×); (dose: 20.0 mg/kg/injection, schedule: Q01DX010 (ip), vehicle: water, evaluated on day 30) 212 and 250 % of control; (dose: 20.0 mg/kg/injection, schedule: Q01DX010 (ip), vehicle: water, run until all animals had died) 131, 200, 210 % of control. Besides, the T/C under setting [1] is 140, 210, 247 % of control [5 of 6 alive]. The survivor count was 6 of 6 (dose: 16.0 mg/kg/injection, schedule: Q01DX010 (ip), vehicle: water); 3 of 6 under setting [1]; 6 of 6 under setting [2].

For the molecule `COC1C(CO)OC(n2cnc3c(=S)nc(N)[nH]c32)C1O` (centres undefined), the T/C runs as follows: (dose: 264.0 mg/kg/injection, schedule: Q04DX003 (ip), vehicle: saline with Tween-80) 145 % of control; (dose: 400.0 mg/kg/injection, schedule: Q04DX003 (ip), vehicle: saline with Tween-80) 136 and 147 % of control [5 of 6 alive].

Consider `O=C(CCCc1ccc(N(CCCl)CCCl)cc1)Nc1ccccc1`, for which, where the note is “dose: 50.0 mg/kg/injection, schedule: Q04DX003 (ip), vehicle: saline with Tween-80”, the T/C was 130 % of control.

Consider `O=C1NC(=O)C2(CCCCC2)N1`, for which the survivor count reads like this: under setting [3], 1 of 6; (dose: 100.0 mg/kg/injection, schedule: Q04DX003 (ip), vehicle: Klucel (hydroxypropylcellulose) (HPC)) 4 of 6; (dose: 200.0 mg/kg/injection, schedule: Q04DX003 (ip), vehicle: Klucel (hydroxypropylcellulose) (HPC)) 1 of 6; (dose: 400.0 mg/kg/injection, schedule: Q04DX003 (ip), vehicle: Klucel (hydroxypropylcellulose) (HPC)) 2 of 6.

Turning to `C[C@]12CC[C@H]3[C@@H](CC[C@]4(O)C[C@@H](O)CC[C@]34C=O)[C@@]1(O)CC[C@@H]2c1ccc(=O)oc1`, the survivor count (dose: 55.0 mg/kg/injection, schedule: Q01DX010 (ip), vehicle: carboxymethylcellulose (CMC)) is given as 6 of 6.

Regarding `CC1NC(=O)OC1C(C)(C)C` (centres undefined), the survivor count reads like this: under setting [4], 0 of 6; under setting [5], 0 of 6.

Turning to `C=CCc1ccccc1OC`, under setting [5], the survivor count is 3 of 6.

Regarding `CC(=O)C1=C(O)C2(O)C(=O)c3c(c(C)c4ccc(C)c(O)c4c3O)CC2C(N)C1=O` (centres undefined), the survivor count is given as 0 of 6 (dose: 25.0 mg/kg/injection, schedule: Q01DX009 (ip), vehicle: saline with Tween-80); 0 of 6 under setting [2]; 0 of 6 under setting [4].

For `Clc1nc2n[nH]nc2nc1Cl`, the survivor count (dose: 12.5 mg/kg/injection, schedule: Q01DX009 (ip), vehicle: saline) is reported as 6 of 6.

`Cc1ccc(NC(=O)c2ccccc2)cc1[As]=[As]c1cc(NC(=O)c2ccccc2)ccc1C` (centres undefined): the T/C is 125 % of control (dose: 1.25 mg/kg/injection, schedule: Q01DX009 (ip), vehicle: gum acacia); 137 % of control (dose: 2.5 mg/kg/injection, schedule: Q01DX009 (ip), vehicle: gum acacia); 140 % of control (dose: 2.5 mg/kg/injection, schedule: Q04DX003 (ip), vehicle: gum acacia); 140 % of control (dose: 3.3 mg/kg/injection, schedule: Q04DX003 (ip), vehicle: gum acacia); 132 % of control (dose: 3.35 mg/kg/injection, schedule: Q01DX009 (ip), vehicle: gum acacia); 139 and 140 % of control under setting [6]. The T/C (dose: 5.0 mg/kg/injection, schedule: Q04DX003 (ip), vehicle: gum acacia) is reported as 136, 140, 145 % of control. The survivor count is, setting by setting: under setting [6], 4 of 6; (dose: 7.5 mg/kg/injection, schedule: Q01DX009 (ip), vehicle: gum acacia) 0 of 6; (dose: 7.5 mg/kg/injection, schedule: Q04DX003 (ip), vehicle: Klucel (hydroxypropylcellulose) (HPC)) 4 of 6; (dose: 7.5 mg/kg/injection, schedule: Q04DX003 (ip), vehicle: gum acacia) 0 of 6; (dose: 10.0 mg/kg/injection, schedule: Q01DX009 (ip), vehicle: gum acacia) 6 of 6; (dose: 10.0 mg/kg/injection, schedule: Q04DX003 (ip), vehicle: gum acacia) 0 of 6. Also, the survivor count (dose: 20.0 mg/kg/injection, schedule: Q04DX003 (ip), vehicle: gum acacia) is recorded as 0 of 6.

Consider `CC(Br)(C(Br)c1ccccc1)[N+](=O)[O-]` (centres undefined), for which the survivor count runs as follows: under setting [3], 2 of 6; (dose: 200.0 mg/kg/injection, schedule: Q01DX009 (ip), vehicle: Klucel (hydroxypropylcellulose) (HPC)) 0 of 6.

`OCCCN1CNC(=S)NC1`: the T/C (dose: 50.0 mg/kg/injection, schedule: Q01DX009 (ip), vehicle: saline) was 132 % of control.

On to `O=C1c2ccccc2C(=O)N1c1cc(O)cc(O)c1`, for which the survivor count is recorded as 6 of 6 (dose: 2.0 mg/kg/injection, schedule: Q01DX009 (ip), vehicle: water) and 5 of 6 (dose: 8.0 mg/kg/injection, schedule: Q01DX009 (ip), vehicle: water). In addition, the T/C (dose: 16.0 mg/kg/injection, schedule: Q01DX009 (ip), vehicle: water) is 129 % of control.

Consider `CCNCc1cc(Nc2cc(C)nc(/N=C(\N)Nc3ccc(Cl)c(Cl)c3)n2)ccc1OC`, for which the T/C (dose: 50.0 mg/kg/injection, schedule: Q04DX003 (ip), vehicle: Klucel (hydroxypropylcellulose) (HPC)) was 131 % of control. The survivor count (dose: 120.0 mg/kg/injection, schedule: Q04DX003 (ip), vehicle: Klucel (hydroxypropylcellulose) (HPC)) is 0 of 6.

For the molecule `CC(=O)C(C)[P+](c1ccccc1)(c1ccccc1)c1ccccc1` (centres undefined), the survivor count by setting is: (dose: 50.0 mg/kg/injection, schedule: Q01DX009 (ip), vehicle: water) 2 of 6; (dose: 100.0 mg/kg/injection, schedule: Q01DX009 (ip), vehicle: water) 0 of 6.
